Reference: paper PMC6362308
No constants are given. Whether binding was seen depends on the method and setting. Binding seen in cells or lysates may run through a third protein. Binding calls can cover weak binding; strength is not graded here.

Tests used:
[1] = biological target: taxol-stabilized microtubules; test: co-sedimentation; HeLa nuclear extract (1 mg/ml in CSF-XB) incubated 15 min at RT with 2 uM taxol-stabilized microtubules, centrifuged at 100,000 g; MAPs eluted from the pellet with 500 mM NaCl and immunoblotted (Fig 1A), or pellets immunoblotted (Fig S1A); only the target purified
[2] = biological target: taxol-stabilized microtubules; test: co-sedimentation; as a1, in the presence or absence of 2 uM importin α, 2 uM importin β and 5 uM RanGTP (Fig 1A); only the target purified

- binding [1]: binds
- binding [2]: binds
B1: Endogenous human RECQL4 (RecQ-like helicase 4) in HeLa nuclear extract (protein, UniProt O94761 1-1208)
chain: MERLRDVRERLQAWERAFRRQRGRRPSQDDVEAAPEETRALYREYRTLKRTTGQAGGGLRSSESLPAAAEEAPEPRCWGPHLNRAATKSPQSTPGRSRQGSVPDYGQRLKANLKGTLQAGPALGRRPWPLGRASSKASTPKPPGTGPVPSFAEKVSDEPPQLPEPQPRPGRLQHLQASLSQRLGSLDPGWLQRCHSEVPDFLGAPKACRPDLGSEESQLLIPGESAVLGPGAGSQGPEASAFQEVSIRVGSPQPSSSGGEKRRWNEEPWESPAQVQQESSQAGPPSEGAGAVAVEEDPPGEPVQAQPPQPCSSPSNPRYHGLSPSSQARAGKAEGTAPLHIFPRLARHDRGNYVRLNMKQKHYVRGRALRSRLLRKQAWKQKWRKKGECFGGGGATVTTKESCFLNEQFDHWAAQCPRPASEEDTDAVGPEPLVPSPQPVPEVPSLDPTVLPLYSLGPSGQLAETPAEVFQALEQLGHQAFRPGQERAVMRILSGISTLLVLPTGAGKSLCYQLPALLYSRRSPCLTLVVSPLLSLMDDQVSGLPPCLKAACIHSGMTRKQRESVLQKIRAAQVHVLMLTPEALVGAGGLPPAAQLPPVAFACIDEAHCLSQWSHNFRPCYLRVCKVLRERMGVHCFLGLTATATRRTASDVAQHLAVAEEPDLHGPAPVPTNLHLSVSMDRDTDQALLTLLQGKRFQNLDSIIIYCNRREDTERIAALLRTCLHAAWVPGSGGRAPKTTAEAYHAGMCSRERRRVQRAFMQGQLRVVVATVAFGMGLDRPDVRAVLHLGLPPSFESYVQAVGRAGRDGQPAHCHLFLQPQGEDLRELRRHVHADSTDFLAVKRLVQRVFPACTCTCTRPPSEQEGAVGGERPVPKYPPQEAEQLSHQAAPGPRRVCMGHERALPIQLTVQALDMPEEAIETLLCYLELHPHHWLELLATTYTHCRLNCPGGPAQLQALAHRCPPLAVCLAQQLPEDPGQGSSSVEFDMVKLVDSMGWELASVRRALCQLQWDHEPRTGVRRGTGVLVEFSELAFHLRSPGDLTAEEKDQICDFLYGRVQARERQALARLRRTFQAFHSVAFPSCGPCLEQQDEERSTRLKDLLGRYFEEEEGQEPGGMEDAQGPEPGQARLQDWEDQVRCDIRQFLSLRPEEKFSSRAVARIFHGIGSPCYPAQVYGQDRRFWRKYLHLSFHALVGLATEELLQVAR
